Measured values as given in patent US7792665B2, “Method for designing a compound based on the three dimensional structure of phosphoinositide dependent protein kinase 1 (PDK1)” (Medical Research Council, priority 2002, dated 2010).
Changes are numbered by the printed parent chain. At least one structure is not confirmed: it was looked up by name or label, or the drawing left a doubt. Where a SMILES comes first, the peptide text is derived from it. [ ]: non-standard residue; d: D form. pT = C[C@@H](OP(=O)(O)O)[C@H](N)C(=O)O

Key:
Conditions in all cases: biotinylated peptide on SA sensor chip
PDK1[K76A] = biological target: T1, PDK1[K76A] (Homo sapiens, UniProt O15530, K76A); assay: Surface plasmon resonance (BiaCore) binding, PDK1[K76A]
T1 construct: made in house; host or cells: human embryonic kidney 293 cells (pEBG2T vector)
T1 sequence (O15530 1-556 K76A): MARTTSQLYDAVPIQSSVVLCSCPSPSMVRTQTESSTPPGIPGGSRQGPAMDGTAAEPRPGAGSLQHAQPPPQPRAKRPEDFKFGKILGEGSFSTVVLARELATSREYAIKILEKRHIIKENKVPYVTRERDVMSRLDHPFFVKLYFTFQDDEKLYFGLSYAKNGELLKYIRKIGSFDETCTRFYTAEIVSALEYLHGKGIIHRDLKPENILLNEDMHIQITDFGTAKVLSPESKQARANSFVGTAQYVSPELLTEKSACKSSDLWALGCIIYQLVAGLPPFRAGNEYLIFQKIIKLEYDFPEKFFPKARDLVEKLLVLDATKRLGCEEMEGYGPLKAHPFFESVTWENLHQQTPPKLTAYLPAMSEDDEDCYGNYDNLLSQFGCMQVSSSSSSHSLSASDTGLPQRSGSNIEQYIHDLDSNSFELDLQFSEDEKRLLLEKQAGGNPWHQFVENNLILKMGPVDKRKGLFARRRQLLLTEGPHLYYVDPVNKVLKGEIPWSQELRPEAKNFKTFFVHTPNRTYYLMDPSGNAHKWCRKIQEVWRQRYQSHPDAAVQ
Protocol: (§1) Binding and activation of wild type and mutant forms of PDK1 to a phosphopeptide derived from the hydrophobic motif of S6K1. The binding of the wild type (wt) PDK1 and indicated mutants to a phosphopeptide comprising the hydrophobic motif of S6K1 (S6K-pHM: […]*YVAPSV, where T* indicates phospho-threonine, SEQ ID NO:104) was analysed by surface plasmon resonance as described in the Materials and Methods.
(§2) A. The sensor chip SA was coated with 12RUs of the biotinylated S6K-pHM peptide and the binding was analysed following injection of 270 nM wild type PDK1, PDK1 [T148A] and PDK1 [K76A]. […] (data not shown).
(§3) B. As in A. except that binding was analysed over a range of PDK1 concentrations (2-2150 nM). The response level at the steady state binding is plotted versus the log of the PDK1 concentration. The estimated Kd was obtained by fitting the data to a sigmoid curve using Kaleidagraph software.
(§4) Binding was analysed in a BiaCore 3000 system (BiaCore AB, Stevenage, UK). Biotinylated S6K-pHM (Biotin-C12-[…](P)YVAPSV) (SEQ ID NO:104) or the non-phosphorylated form of this peptide S6K-HM was bound to an streptavidin-coated Sensor chip (SA) (12 response units, RU). […] Steady state binding was determined at each concentration. Dissociation of PDK1 from the phospho-peptide was monitored over a 1 min period. […]

wild type PDK1 = biological target: T2, wild type PDK1 (Homo sapiens, UniProt O15530); assay: Surface plasmon resonance (BiaCore) binding of hydrophobic motif peptides, wild type PDK1; design: made in house; host or cells: human embryonic kidney 293 cells (pEBG2T vector)
T2 sequence (O15530 1-556): T1 sequence (O15530 1-556 K76A) with A76K
Protocol: as §1, §2, §3, §4

PDK1[T148A] = biological target: T3, PDK1[T148A] (Homo sapiens, UniProt O15530, T148A); assay: Surface plasmon resonance (BiaCore) binding, PDK1[T148A]; design: made in house; host or cells: human embryonic kidney 293 cells (pEBG2T vector)
T3 sequence (O15530 1-556 T148A): T1 sequence (O15530 1-556 K76A) with A76K, T148A
Protocol: as §1, §2, §3, §4

With `CC(C)C[C@H](NC(=O)[C@H](Cc1ccccc1)NC(=O)[C@@H](NC(=O)[C@H](CCC(N)=O)NC(=O)[C@H](CC(N)=O)NC(=O)[C@H](C)NC(=O)[C@H](CO)NC(=O)[C@H](CCC(=O)O)NC(=O)[C@@H](N)CO)C(C)C)C(=O)NCC(=O)N[C@@H](Cc1ccccc1)C(=O)N[C@H](C(=O)N[C@@H](Cc1ccc(O)cc1)C(=O)N[C@H](C(=O)N[C@@H](C)C(=O)N1CCC[C@H]1C(=O)N[C@@H](CO)C(=O)N[C@H](C(=O)O)C(C)C)C(C)C)[C@@H](C)OP(=O)(O)O` [S6K-pHM] (H-SESANQVFLGF[pT]YVAPSV-OH; N-terminus and C-terminus assumed) the Kd (PDK1[K76A]) was 1700 nM, the Kd (wild type PDK1) was 600 nM and the Kd (PDK1[T148A]) was 60 nM.
